This is one part of the list.

First the molecules themselves.
B1: il2ra_site2_2erj_normal_mot_HHH_eva_0077_000000062_0001_1_20_H_._7893fd715048dbce5e23317e54f1e302_0001_0001_0000700034_0000001_0_af2pred_0001_af2pred (protein)
chain: DEEEAKEIVAEALGIPPEEVEEDVEEAKREFGDPKEVEKFLASSLRTAGVPPEEAEKLAKLLLRG
B2: il2ra_site1_1z92_sap_15_mot_HHH_b2_07283_000000256_0001_22_39_H_._HHH_b2_02826_af2_0001_0000100003_0000001_1_0001_af2pred_0001_af2pred (protein)
chain: SSSSSLSVRAAQLAAEIALELGLDDRQARELLRLAVRLANDGFSEEEIEEILRELAKELLSSSSS
B3: il2ra_site2_2erj_normal_mot_HHH_b2_08028_000000126_0001_18_34_H_._HHH_b2_03584_af2_0001_0000300005_0000001_0 (protein)
chain: SSSSDLEELLEEAKQLLEEGDPEEAHRVLSEAFELAYRNNDFELFNELAKLAELIARYEGSSSSS
B4: il2ra_site2_3nfp_normal_mot_HHH_b2_08245_000000272_0001_41_55_H_._HHH_b1_05218_0001_0000300030_0000001_0 (protein)
chain: SSSSDEERVEELLREVEELLKRGNPEEAQKLLREATKIAFENRNHELFAKIAEYLFLLVQSSSSS
B5: il2ra_site1_1z92_normal_mot_HHH_b2_07744_000000167_0001_23_40_H_._HHH_b1_00578_0001_0000200029_0000001_0 (protein)
chain: SSSTDEEAAQLLLRLLEIAVKANDEEHVRKVFEFLREHVEDAGDPELRRILEEAEELLEEVSSSS
B6: il2ra_site1_2b5i_normal_mot_HHH_b1_06833_000000207_0001_1_19_H_._ems_p1-16H-GBL-16H-GABBL-15H_0203_0001_0001_0001_0001_0000100003_0000001_0_af2pred_dldesign_0_a … (protein)
chain: SSSSSSPIDKRLDELYDKAQAAGNKEAMKKVVTAKYYYEKGEINEEELQKLIDEAEELLKSSSSS
B7: il2ra_site2_2erj_normal_mot_HHH_b1_01851_000000016_0001_43_56_H_._HHH_b1_04282_0001_0000100012_0000001_0 (protein)
chain: SSSSDEEEERIRELAEEAKRITDLREVYELVHEMLRIASERRDDELQELVMELFEEIVKLLSSSS
B8: il2ra_site1_2b5i_sap_17_mot_HHH_b1_07473_af2_000000006_0001_1_20_H_._HHH_b1_02077_af2_0002_0000800052_0000001_0_0001_af2pred_dldesign_0_af2pred (protein)
chain: SSSSDETFDKIYELYKEALEKRKQGDYEGTRELLEEALRLAEAANDAKIAAELRWLLAHLSSSSS
B9: il2ra_site1_3nfp_normal_mot_HHH_b2_06502_000000163_0001_42_55_H_._07104d7dbe42e49ee5b1eb09eb0325d4_0001_1_0001_0000400031_0000001_0_af2pred_0001_af2pred (protein)
chain: DKEKVIEKLLRDLENIPDPRVQEIVEEVKELLRQGDPEEALKLLKELAEELGDPNLRLLLERIER
B10: il2ra_site2_3nfp_sap_13_mot_HHH_b1_04032_000000208_0001_43_56_H_._HHH_b1_00623_af2_0001_0000100006_0000001_1_0001 (protein)
chain: SSSSSDEEIEELLQELERLLEEGDKEKFRRVAARAAHVIFENNDHEAFARLADLLYRLVGSSSSS
B11: il2ra_site2_3nfp_normal_mot_HHH_b1_05627_af2_000000038_0001_43_56_H_._HHH_b2_02672_af2_0001_0000400009_0000001_0 (protein)
chain: SSSSNKNEEYLRIALLLLEEALEAGDEEAIKELLEAIRIVAEILNDEEAKKLLEEVEEELSSSSS
B12: il2ra_site2_3nfp_normal_mot_HHH_b1_00660_af2_000000199_0001_40_57_H_._HHH_b2_07492_0001_0000100004_0000001_1 (protein)
chain: SSSSDVEERVRELLEKAEELREQGNPEEVRELLAEATQLAYENRDHEAFALILEVLFKLEHSSSS
B13: il2ra_site1_3nfp_normal_mot_HHH_b1_07560_af2_000000209_0001_40_57_H_._HHH_b2_06597_af2_0001_0000100007_0000001_0_af2pred_0001_af2pred_1 (protein)
chain: SSSSDIVRRVDELAREAIKLFERGNPEEAEKVLEEALKLAEEAGSELARRFLELLLKKLNSSSSS
B14: il2ra_site2_3nfp_sap_19_mot_HHH_b1_06589_000000230_0001_37_50_H_._HHH_b2_07793_0001_0000300009_0000001_0_0001_af2pred_0001_af2pred_swapped (protein)
chain: SSSSDREEEIRKLIEEAERLLEEGNPEEARKIVREALQLIRELGDAELAQELAEVIAKLESSSSS
B15: il2ra_site2_3nfp_normal_mot_HHH_b1_06613_af2_000000098_0001_23_40_H_._72a79b14e1a0e827e78e129a6f5f8f0c_0001_1_0001_0000300023_0000001_0_af2pred_0001_1_af2pred_s … (protein)
chain: TKELSRRILELYERGDPVAFELYALLADVQATGDPELRELLEEALEALERGNPEEAKEIVKKALK
B16: il2ra_site1_1z92_normal_mot_HHH_b2_00141_000000217_0001_1_20_H_._2fd006765095e2299ff75ffcaa73beff_0001_0001_0000100003_0000001_0_af2pred_0001_af2pred (protein)
chain: TNAEQVVEEAREKAPTPEERAELLIRILEEEANLPPELAIQLAKIIAKRLGDEELLRALEKLERK
B17: il2ra_site1_3nfp_normal_mot_HHH_b1_00258_000000025_0001_42_56_H_._HHH_b1_03924_af2_0002_0000500043_0000001_0_af2pred_0001_af2pred (protein)
chain: SSSSQELIRRASELFQQAAEADRRGNPEEARELLEEAREFAEEGGNPSLLRKIENALRVLESSSS
B18: il2ra_site1_3nfp_normal_mot_ems_3hC_3_0002_000000237_0001_23_41_H_._971380201c9414114138cf1fdc40c0f4_0001_1_0001_0000300014_0000001_0_af2pred_0001_af2pred (protein)
chain: SLAEELVEEIEEKGLPPEEIEKLIREILKRIGDPEEAREFFEELMRLAAKNRNEELLEAIKLVLR

The target of this experiment is il2ra, P01589. The experiment is described as follows: yeast display titration.
B1: the “apparent Kd” value is “inactive: no binding seen”.

In the case of B2, the “apparent Kd” value is “inactive: no binding seen”. Under B3 stands “inactive: no binding seen”. For B4, the “apparent Kd” value is “inactive: no binding seen”. Under B5 stands “inactive: no binding seen”. Under B6 stands “inactive: no binding seen”; under B7, “inactive: no binding seen”; under B8, “inactive: no binding seen”. As to B9, the “apparent Kd” value is “inactive: no binding seen”.

With B10, the “apparent Kd” value is “inactive: no binding seen”. Under B11 stands “inactive: no binding seen”; under B12, “inactive: no binding seen”. Then B13, with “inactive: no binding seen”. As to B14, the “apparent Kd” value was “inactive: no binding seen”.

For the molecule B15, the “apparent Kd” value was “inactive: no binding seen”. Under B16 stands “inactive: no binding seen”; under B17, “inactive: no binding seen”. Then B18, with “inactive: no binding seen”.

For the origin of these results see publication PMC10163288.
